Laboratory results: patent publication US20260085101A1 (THE UNIVERSITY OF SYDNEY, priority 2022, published 2026)

What was measured:
[1] = general procedure: Fmoc solid-phase peptide synthesis; Rink amide resin (0.49 mmol/g); details: conjugation step, one disulfide bridge, sequence written open
[2] = general procedure: Fmoc solid-phase peptide synthesis; Rink amide resin; details: whole synthesis, scale 50 μmol portion cleaved

## (CVRKIEIVRKK)2(Peg3)2(EYEK(Palm)EYE)2-C′
[1]
  conjugation yield: 36%

## (CVRKIEIVRKK)2(Peg3)2EYEK(Palm)EYE-C′
[1]
  conjugation yield: 8%

## N′-CVRKIEIVRKK(Peg3)2EYEK(Palm)EYE-C′
[2]
  crude mass: 53 mg
  crude yield: 36%

## N′-CVRKIEIVRKK-C′
[2]
  isolated mass: 22.6 mg
  isolated yield: 32%
